# According to patent US20240254229A1 (Molecular Partners, published 2024):
# Protein sequences, listed by entry. Tags and fused reporters are not part of them. Lines headed by an entry give the natural chain unless they say otherwise; changes in a name come on top.
# UniProt P20138: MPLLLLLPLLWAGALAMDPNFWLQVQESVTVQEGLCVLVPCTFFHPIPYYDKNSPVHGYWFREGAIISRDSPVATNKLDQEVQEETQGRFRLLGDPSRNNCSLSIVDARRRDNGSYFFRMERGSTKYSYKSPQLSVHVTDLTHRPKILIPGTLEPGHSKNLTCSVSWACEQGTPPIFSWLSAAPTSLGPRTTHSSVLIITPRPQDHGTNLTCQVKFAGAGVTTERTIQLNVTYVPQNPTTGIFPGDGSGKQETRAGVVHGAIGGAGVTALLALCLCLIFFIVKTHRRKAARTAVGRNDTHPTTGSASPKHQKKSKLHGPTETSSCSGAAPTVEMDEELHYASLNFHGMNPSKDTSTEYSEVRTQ
# UniProt P26951: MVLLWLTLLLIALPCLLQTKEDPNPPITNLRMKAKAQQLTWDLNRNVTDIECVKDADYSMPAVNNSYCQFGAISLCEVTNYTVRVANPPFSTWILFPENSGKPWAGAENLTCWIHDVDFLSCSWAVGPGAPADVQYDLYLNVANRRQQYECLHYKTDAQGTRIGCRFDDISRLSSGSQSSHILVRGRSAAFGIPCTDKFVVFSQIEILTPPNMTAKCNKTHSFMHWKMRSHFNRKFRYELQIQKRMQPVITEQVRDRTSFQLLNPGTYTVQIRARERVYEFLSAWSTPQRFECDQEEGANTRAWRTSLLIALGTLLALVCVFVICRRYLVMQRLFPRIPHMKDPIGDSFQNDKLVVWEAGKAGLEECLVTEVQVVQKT
# UniProt P32970: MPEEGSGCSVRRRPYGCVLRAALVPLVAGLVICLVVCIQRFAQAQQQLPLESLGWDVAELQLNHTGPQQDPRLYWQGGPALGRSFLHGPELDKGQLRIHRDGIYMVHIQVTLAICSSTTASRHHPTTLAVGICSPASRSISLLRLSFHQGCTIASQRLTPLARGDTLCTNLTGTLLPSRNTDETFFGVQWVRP
# Results are given in words; binding and its absence hold for the method and conditions named. Some results given as binding are weak or reduced against the parent protein; the word gives no strength.
# Molecular target: Molm-13 N1 tumor cells (carrying CD123, CD33 and CD70) (human) (UniProt P20138+P26951+P32970)
# Assay: flow cytometry on Molm-13 N1 cells, anti-DARPin rabbit antibody and Alexa Fluor 647 secondary antibody, 20 µM HSA
row,Binder,binding
1,"DARPin® protein #58 (designed binder, HSA-HSA-CD70-CD123-CD33-CD3) DLGKKLLEAARAGQDDEVRELLKAGADVNAKDYFSHTPLHLAARNGHLKIVEVLLKAGADVNAKDFAGKTPLHLAAADGHLEIVEVLLKAGADVNAQDIFGKTPADIAADAGHEDIAEVLQKAAGSPTPTPTTPTPTPTTPTPTPTGSDLGKKLLEAARAGQDDEVRELLKAGADVNAKDYFSHTPLHLAARNGHLKIVEVLLKAGADVNAKDFAGKTPLHLAAADGHLEIVEVLLKAGADVNAQDIFGKTPADIAADAGHEDIAEVLQKAAGSPTPTPTTPTPTPTTPTPTPTGSDLGIKLLTAAYDGQLDEVRILLKAGADVNAKDLRGQTPLHYAAGLGHLEIVEVLLKAGADVNAKDLHGWTPLHLAAWSGHLEIVEVLLKAGADVNAQDVEGVTPADLAAVQGHQDIAEVLQKAAGSPTPTPTTPTPTPTTPTPTPTGSDLGWKLLDAAEIGQLDEVRILLKAGADVNAKDKQGITPLHIAAAHGHLEIVEVLLKAGADVNAKDEIGRTPLHLAAFKGHLEIVEVLLKAGADVNAQDIIGETPADLAAVRGHQDIAEVLQKAAGSPTPTPTTPTPTPTTPTPTPTGSDLGVKLLLAAERGQLDEVRILLKAGADVNAKDIAEGYTPLHIAAYQGHLEIVEVLLKAGADVNAKDRYGKTPLHLAAIGGHLEIVEVLLKAGADVNAQDNKGSTPADLAADYGHQDIAEVLQKAAGSPTGSDLGQKLLEAAWAGQDDEVRELLKAGADVNAKNSRGWTPLHTAAQTGHLEIFEVLLKAGADVNAKNDKRVTPLHLAAALGHLEIVEVLLKAGADVNARDSWGTTPADLAAKYGHQDIAEVLQKAA",binds
2,"DARPin® protein #59 (designed binder, HSA-HSA-CD70-CD123-CD33-CD3) DLGKKLLEAARAGQDDEVRELLKAGADVNAKDYFSHTPLHLAARNGHLKIVEVLLKAGADVNAKDFAGKTPLHLAAADGHLEIVEVLLKAGADVNAQDIFGKTPADIAADAGHEDIAEVLQKAAGSPTPTPTTPTPTPTTPTPTPTGSDLGKKLLEAARAGQDDEVRELLKAGADVNAKDYFSHTPLHLAARNGHLKIVEVLLKAGADVNAKDFAGKTPLHLAAADGHLEIVEVLLKAGADVNAQDIFGKTPADIAADAGHEDIAEVLQKAAGSPTPTPTTPTPTPTTPTPTPTGSDLGIKLLTAAYDGQLDEVRILLKAGADVNAKDLRGQTPLHYAAGLGHLEIVEVLLKAGADVNAKDLHGWTPLHLAAWSGHLEIVEVLLKAGADVNAQDVEGVTPADLAAVQGHQDIAEVLQKAAGSPTPTPTTPTPTPTTPTPTPTGSDLGKKLLEAALEGQLDEVRELLKAGADVNAKDQEGYTPLHLAAALGHLEIVEVLLKAGADVNAKDQIGRTPLHLAAYKGHLEIVEVLLKAGADVNAQDIIGQTPADLAAQRGHQDIAEVLQKAAGSPTPTPTTPTPTPTTPTPTPTGSDLGVKLLLAAERGQLDEVRILLKAGADVNAKDIAEGYTPLHIAAYQGHLEIVEVLLKAGADVNAKDRYGKTPLHLAAIGGHLEIVEVLLKAGADVNAQDNKGSTPADLAADYGHQDIAEVLQKAAGSPTGSDLGQKLLEAAWAGQDDEVRELLKAGADVNAKNSRGWTPLHTAAQTGHLEIFEVLLKAGADVNAKNDKRVTPLHLAAALGHLEIVEVLLKAGADVNARDSWGTTPADLAAKYGHQDIAEVLQKAA",binds
3,"DARPin® protein #57 (designed binder, HSA-HSA-CD70-CD123-CD33-CD3; not shown: N-terminal His-tag) DLGKKLLEAARAGQDDEVRELLKAGADVNAKDYFSHTPLHLAARNGHLKIVEVLLKAGADVNAKDFAGKTPLHLAAADGHLEIVEVLLKAGADVNAQDIFGKTPADIAADAGHEDIAEVLQKAAGSPTPTPTTPTPTPTTPTPTPTGSDLGKKLLEAARAGQDDEVRELLKAGADVNAKDYFSHTPLHLAARNGHLKIVEVLLKAGADVNAKDFAGKTPLHLAAADGHLEIVEVLLKAGADVNAQDIFGKTPADIAADAGHEDIAEVLQKAAGSPTPTPTTPTPTPTTPTPTPTGSDLGIKLLTAAYDGQLDEVRILLKAGADVNAKDLRGQTPLHYAAGLGHLEIVEVLLKAGADVNAKDLHGWTPLHLAAWSGHLEIVEVLLKAGADVNAQDVEGVTPADLAAVQGHQDIAEVLQKAAGSPTPTPTTPTPTPTTPTPTPTGSDLGKKLLQAALEGQLDEVRELLKAGADVNAKDIEGYTPLHLAAALGHLEIVEVLLKAGADVNAKDQIGRTPLHLAAYKGHLEIVEVLLKAGADVNAQDIIGQTPADLAAQRGHQDIAEVLQKAAGSPTPTPTTPTPTPTTPTPTPTGSDLGKKLLLAAERGQLDEVRILLKAGADVNAKDRAEGYTPLHIAAYQGHLEIVEVLLKAGADVNAKDRYGKTPLHLAAISGHLEIVEVLLKAGADVNAQDNKGSTPADLAADYGHQDIAEVLQKAAGSPTGSDLGQKLLEAAWAGQDDEVRELLKAGADVNAKNSRGWTPLHTAAQTGHLEIFEVLLKAGADVNAKNDKRVTPLHLAAALGHLEIVEVLLKAGADVNARDSWGTTPADLAAKYGHQDIAEVLQKAA",binds

# Next, values leading:
row,binding,Binder
1,binds,"DARPin® protein #60 (designed binder, HSA-HSA-CD70-CD123-CD33-CD3) DLGKKLLEAARAGQDDEVRELLKAGADVNAKDYFSHTPLHLAARNGHLKIVEVLLKAGADVNAKDFAGKTPLHLAAADGHLEIVEVLLKAGADVNAQDIFGKTPADIAADAGHEDIAEVLQKAAGSPTPTPTTPTPTPTTPTPTPTGSDLGKKLLEAARAGQDDEVRELLKAGADVNAKDYFSHTPLHLAARNGHLKIVEVLLKAGADVNAKDFAGKTPLHLAAADGHLEIVEVLLKAGADVNAQDIFGKTPADIAADAGHEDIAEVLQKAAGSPTPTPTTPTPTPTTPTPTPTGSDLGIKLLTAAYDGQLDEVRILLKAGADVNAKDLRGQTPLHYAAGLGHLEIVEVLLKAGADVNAKDLHGWTPLHLAAWSGHLEIVEVLLKAGADVNAQDVEGVTPADLAAVQGHQDIAEVLQKAAGSPTPTPTTPTPTPTTPTPTPTGSDLGKKLLQAARAGQLDEVRELLKAGADVNAKDQYGRTPLHLAAIKGHLEIVEVLLKAGADVNAKDSLGYTPLHLAAVEGPLEIVEVLLKAGADVNAKDAYGQTPLHIAAAWGHLEIVEVLLKAVADVNAQDKSGKTPADLAARAGHQDIAEVLQKAAGSPTPTPTTPTPTPTTPTPTPTGSDLGVKLLLAAERGQLDEVRILLKAGADVNAKDIAEGYTPLHIAAYQGHLEIVEVLLKAGADVNAKDRYGKTPLHLAAIGGHLEIVEVLLKAGADVNAQDNKGSTPADLAADYGHQDIAEVLQKAAGSPTGSDLGQKLLEAAWAGQDDEVRELLKAGADVNAKNSRGWTPLHTAAQTGHLEIFEVLLKAGADVNAKNDKRVTPLHLAAALGHLEIVEVLLKAGADVNARDSWGTTPADLAAKYGHQDIAEVLQKAA"
2,binds,"DARPin® protein #62 (designed binder, HSA-HSA-CD70-CD33-CD123-CD3) DLGKKLLEAARAGQDDEVRELLKAGADVNAKDYFSHTPLHLAARNGHLKIVEVLLKAGADVNAKDFAGKTPLHLAAADGHLEIVEVLLKAGADVNAQDIFGKTPADIAADAGHEDIAEVLQKAAGSPTPTPTTPTPTPTTPTPTPTGSDLGKKLLEAARAGQDDEVRELLKAGADVNAKDYFSHTPLHLAARNGHLKIVEVLLKAGADVNAKDFAGKTPLHLAAADGHLEIVEVLLKAGADVNAQDIFGKTPADIAADAGHEDIAEVLQKAAGSPTPTPTTPTPTPTTPTPTPTGSDLGIKLLTAAYDGQLDEVRILLKAGADVNAKDLRGQTPLHYAAGLGHLEIVEVLLKAGADVNAKDLHGWTPLHLAAWSGHLEIVEVLLKAGADVNAQDVEGVTPADLAAVQGHQDIAEVLQKAAGSPTPTPTTPTPTPTTPTPTPTGSDLGVKLLLAAERGQLDEVRILLKAGADVNAKDIAEGYTPLHIAAYQGHLEIVEVLLKAGADVNAKDRYGKTPLHLAAIGGHLEIVEVLLKAGADVNAQDNKGSTPADLAADYGHQDIAEVLQKAAGSPTPTPTTPTPTPTTPTPTPTGSDLGKKLLEAALEGQLDEVRELLKAGADVNAKDQEGYTPLHLAAALGHLEIVEVLLKAGADVNAKDQIGRTPLHLAAYKGHLEIVEVLLKAGADVNAQDIIGQTPADLAAQRGHQDIAEVLQKAAGSPTPTPTTPTPTPTTPTPTPTGSDLGQKLLEAAWAGQDDEVRELLKAGADVNAKNSRGWTPLHTAAQTGHLEIFEVLLKAGADVNAKNDKRVTPLHLAAALGHLEIVEVLLKAGADVNARDSWGTTPADLAAKYGHQDIAEVLQKAA"
